## Primary screen of a compound library

Each number is a percent effect as filed.
The controls that fix the scale are not given in the record; negative values are as filed.
Compounds were drawn at random from those tested, without regard to their results.

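Whole-cell assay for inhibitors of Mycobacterium tuberculosis growth, labelled Cornell in the record; the read-out is not stated. The concentration is filed as 10 mM, unlikely as a test dose, so the dose is not known. Higher means stronger inhibition (inferred from two other growth screens of the library). Size under these conditions: about 53,000 compounds, about 900 of them at 50% or above in at least one test.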

| Compound | Percent Effect |
|---|---|
| `CC(=O)Nc1ccc(SCCCC(=O)NCC2CCCO2)nn1` (stereo not given) | -14.51% |
| `CNC(=O)c1ccc(N(C)C2CCC2)nn1` | -0.9194% |
| `CN(C)c1ncc(I)c(C2CCCCN2S(C)(=O)=O)n1` (stereo not given) | 14.27% |
| `O=C(CN1CC(n2cccn2)C1)NCCCN1CCCC1=O` | -37.58% |
| `O=C(CCN1C(=O)CCC1=O)Nc1ccc(Oc2ccc(Cl)cc2)nc1` | -1.389% |
| `CN(C)C1(CNC(=O)Cc2ccc(F)cc2)CCOCC1` | 0.8062% |
| `[H][C@]12CC[C@](O)(CC1)C(CO)N2Cc1ccco1` (stereo not given in full) | -6.205% |
| `CCn1nc2c(cc1=O)CN(Cc1nc(-c3cccs3)no1)CC2` | -56.25% |
| `Cc1n[nH]c(C)c1C1CCCN1C(=O)NCC(=O)Nc1ccccc1` (stereo not given) | -36.06% |
| `Cc1cc(CNC2(c3ccccc3)CCCCC2)on1` | 16.62% |
| `Cc1cc(NCc2cccc(C#N)c2)ccc1Br` | 50.78% |
| `Cc1ccc(CNC(=O)CCSCc2csc(C)n2)cn1` | -39.35% |
| `CCc1nc(C)cn1C(=O)Nc1ccccc1` | 23.8% |
| `COc1ccc(CN(C)CC(=O)Nc2ccc3[nH]c(=O)[nH]c3c2)cc1F` | -12.93% |
| `Cc1c(C(=O)O)nnn1-c1cccc2cccnc12` | -33.64% |
| `Cc1ccc(-n2ncc(C(=O)N3CCCC3c3cnn(C)c3)c2C)cc1` (stereo not given) | -26.03% |
| `Cn1ncc2c(N3CCN(C(N)=O)CC3)nc(C3CCCC3)nc21` | -6.331% |
| `COc1ccc(CN(C)[C@@H]2CN(C(=O)c3cnn(C)c3)C[C@H]2O)cc1` | 14.44% |
| `CC(=O)c1ccc(Cl)c(Cl)c1OCC(=O)NCC(F)(F)F` | -13.17% |
| `O=c1n(CCSCCOc2ccc(Br)cc2)nc2ccccn12` | -1.055% |
| `Cc1cc(CNc2ccc(CC(=O)N(C)c3ccccc3)cc2)no1` | 15.27% |
| `Cc1noc(C(C)C)c1C(=O)NCC(c1cccs1)N(C)C` (stereo not given) | 14.96% |
| `CSCCN1CCN(c2nc(N)ncc2C)CC1` | -18.6% |
| `CN(CC(=O)N1CCOCC(CO)C1)Cc1ccccn1` (stereo not given) | 10.91% |
| `NC(=O)c1cc2c(nc1-c1ccc3c(c1)CCO3)CCC2` | -6.096% |
| `Cc1nsc(NC(=O)N2CCc3sccc3C2)n1` | 17.36% |
| `CC(C)(C)C(=O)NCCc1cc(N2CCOCC2)nc(NC2CC2)n1` | 37.2% |
| `CCC(=O)c1ccc(OCC(=O)NC(C)c2nnc(C)[nH]2)cc1` (stereo not given) | -64.08% |
| `CC1(C)Oc2ccc(S(=O)(=O)NCCCn3ccnc3)cc2NC1=O` | -9.284% |
| `CC1CN(C)CCN1C(=O)c1ccn(-c2cccc(F)c2)n1` (stereo not given) | -23.37% |
| `CN1C(=O)CC(c2cnn(C)c2)C12CCN(C(=O)c1ccnnc1)CC2` (stereo not given) | -17.24% |
| `FC(F)(F)c1ccc(-n2ccnc2-c2cc3n(n2)CCNC3)cn1` | 15.04% |
| `O=C(Cn1cccc2cc(-c3ccc(F)cc3)nc1-2)N1CCC(O)CC1` | -1.282% |
| `CN(C)C(CNc1c(NCc2ccco2)c(=O)c1=O)c1ccccc1` (stereo not given) | 8.872% |
| `O=C(O)CCCN1C[C@@H](c2ccccc2F)[C@@]2(CCCCC(=O)N2)C1` | 43.05% |
| `COc1ccc(CNCC2CN(C3CC3)CCO2)cc1C` (stereo not given) | 9.832% |
| `CC(CN1CCOCC1)NC(=O)N1CCCC1` (stereo not given) | -38.19% |
| `O=C(Nc1ccccc1OCCc1ccccn1)N1CCOCC1` | 20.59% |
| `Cc1occc1C(=O)NCC(=O)N(C)CCCOc1ccccc1` | 29.08% |
| `Cc1cc2nc(-c3cn(C4CCNCC4)nn3)[nH]c2cc1C` | 6.741% |
| `NC(=O)C1CN(C(=O)Nc2cc(Cl)cc(Cl)c2)CCO1` (stereo not given) | 103.4% |
| `Cn1ccc2c(-c3cc(N4CCOCC4)ncn3)ccnc21` | 9.93% |
| `[H][C@@]12C[C@@H](O)C[C@]1([H])CN(Cc1cc(C(C)(C)C)ccc1OCC(N)=O)C2` | 17.53% |
| `Cc1cccc(C(C(=O)NC(C)(C)CN2CCCC2)N(C)C)c1` (stereo not given) | 1.388% |
| `Cc1cnc(CN(C)C2CCN(Cc3nc4ccccc4o3)C2)o1` (stereo not given) | -35.54% |
| `O=C(NC1CC1)c1ccc2ccc(N3CCN(CC4CC4)CC3)n2c1` | 7.23% |
| `O=C(C[S+]([O-])Cc1cccc(Cl)c1)NC1CCCC1` (stereo not given) | 37.46% |
| `CC1CCCCN1S(=O)(=O)NCc1cccnc1OC1CCCC1` (stereo not given) | 16.33% |
| `CCOCCC(=O)N(C)c1ccc(F)c(Cl)c1` | 8.852% |
| `Cc1cnn(CC2CN(c3ncnc4ccsc34)CCO2)c1` (stereo not given) | 37.81% |
| `CN1CCC(Cc2noc(-c3cn(Cc4ccccc4Cl)nn3)n2)CC1` | 14.75% |
| `CCOc1ncccc1NC(=O)N1CCCCCC1` | 13.52% |
| `COc1cccc(CC(=O)N2Cc3nccn3CC(CN(C)C)C2)c1` (stereo not given) | 0.7252% |
| `O=C(O)C(F)(F)F.O=C(O)C(F)(F)F.[H][C@@]12C[C@@H](Oc3cncnc3)CN1CCN(Cc1nccn1C)C2` | 9.511% |
| `CCC(=O)c1ccc(OCC(=O)NCC2CC(CC)=NO2)cc1` (stereo not given) | 21.67% |
| `Cc1nn(C)c2nc(N3CCC(C(O)c4ccccn4)CC3)sc12` (stereo not given) | -1.4% |
| `COc1ccccc1NC(=O)CSC1CCc2ccccc2NC1=O` (stereo not given) | 26.65% |
| `O=C(CO)N1CCCC2(CCN(c3ccsc3)C2=O)C1` (stereo not given) | 26.08% |
| `O=S(=O)(NCc1ccc(S(=O)(=O)N2CCCC2)s1)c1ccc(Cl)cc1` | 13.61% |
| `Cc1cc(=O)[nH]c(SC(C)C(=O)N2CCC(NS(C)(=O)=O)CC2)n1` (stereo not given) | -68.65% |

The first 5 entries again:

{"compound": "CC(=O)Nc1ccc(SCCCC(=O)NCC2CCCO2)nn1", "stereo": "stereo not given", "Percent Effect": -14.51}
{"compound": "CNC(=O)c1ccc(N(C)C2CCC2)nn1", "Percent Effect": -0.9194}
{"compound": "CN(C)c1ncc(I)c(C2CCCCN2S(C)(=O)=O)n1", "stereo": "stereo not given", "Percent Effect": 14.27}
{"compound": "O=C(CN1CC(n2cccn2)C1)NCCCN1CCCC1=O", "Percent Effect": -37.58}
{"compound": "O=C(CCN1C(=O)CCC1=O)Nc1ccc(Oc2ccc(Cl)cc2)nc1", "Percent Effect": -1.389}

Measurements from “University of Dundee, Small-Polar-MMV Screening Library” (2021), ChEMBL document CHEMBL3988442.